According to the supplement of paper PMC3334620:
In all, about 33,000 sequences were measured (“E-score (-0.5 to 0.5)”: median about -0.0059, highest 2% from about 0.26 on). The list shows a part of the results.

Target: T1, Cin5 (UniProt P40917)
T1 sequence: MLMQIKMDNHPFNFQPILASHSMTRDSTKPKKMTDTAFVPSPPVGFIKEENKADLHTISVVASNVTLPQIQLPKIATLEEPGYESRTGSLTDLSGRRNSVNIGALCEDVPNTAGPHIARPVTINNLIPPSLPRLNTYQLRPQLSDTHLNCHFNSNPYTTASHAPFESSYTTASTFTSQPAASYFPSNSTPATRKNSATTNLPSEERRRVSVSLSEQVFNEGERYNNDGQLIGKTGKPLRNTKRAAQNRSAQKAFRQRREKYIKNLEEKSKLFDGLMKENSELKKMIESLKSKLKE
Test: PBM E-score (8-mer binding enrichment) (E-score (-0.5 to 0.5)); higher = stronger / more preferred TF binding
Conditions: protein concentration: 100 nM; construct: GST-full length
How it was run: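 Masliner-normalised scans of fluorescent anti-GST signal were the basis for scoring. That signal came from GST-tagged yeast transcription factors applied at about 100-200 nM to double-stranded universal all-10-mer Agilent arrays on fresh or once-stripped slides. Each ungapped eight-base word, pooled with its reverse complement, received an E-score from the Universal PBM Analysis Suite.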

Sequence	PBM E-score
CCTTGATC	-0.0761
ACATGAAG	-0.0435
ATTGCTTA	0.259
ACCAGAAT	0.0901
CTGTCGCA	-0.0934
ATAACGGC	0.0312
ACACATCG	-0.0963
CATAAACG	0.0174
CCACAGCG	-0.0604
GCCCGCCA	0.0033
GGCGTCAA	-0.0266
ACCCGCAT	0.193
ATTTTGTG	0.139
CAGCTTAG	0.0588
ATTTGCAC	0.122
CGTACATC	0.0537
ATGAGGGG	0.0909
ATACTCAC	0.117
GAGTAAGC	0.251
GATTAGAC	0.115
GCACATGC	-0.064
GGTGCTAC	-0.0898

Some of the entries so far, with each value named:
GATTAGAC
  PBM E-score: 0.115
GCACATGC
  PBM E-score: -0.064
GGTGCTAC
  PBM E-score: -0.0898

Some of the entries so far, with each value named.
ATTGCTTA
  PBM E-score: 0.259
ACCAGAAT
  PBM E-score: 0.0901

The list continues:

Sequence	PBM E-score
AGCGGACC	-0.159
CCGGATTA	0.243
AACGAATC	0.0764
TACATGCA	0.12
ACTTTGCA	0.127
ACCGATCA	0.0485
CCAGCCTA	-0.0642
CCGTGTTC	0.21
TACTCAAA	0.0621
ATTGGTAC	0.0477
ACCCAACT	0.11
AATGCTCG	0.0601
CAAAAACA	-0.00679
AACCCCGC	0.0377
CAATAAAC	0.118
AATTGTTA	0.165
CCCTTCCA	-0.115
GATTGAAC	0.029
ACGATATC	0.105
ACATATCC	0.101
TAGATGCA	0.0348
GAGCCTCC	-0.2

Sequence	PBM E-score
ACTGTTCC	-0.0245
ACGAGAAA	0.174
AAGTCCCG	-0.0962
AAATTGTC	0.23
AGCTTTGC	-0.121
AAGTTAAT	0.105
ACGTTACA	0.13
AACAGCGG	0.0283
CGGGCTAG	-0.107
GGTGGAAC	-0.102
TCTCGAAA	-0.0342
CACTAGAG	-0.0745
AGTCGCGG	-0.267
TGCGGAAA	0.103
ACGGACGT	-0.108
GATGAGCA	0.104
CAATTGCA	-0.0549
AATAGAAA	0.0988
CACAAAGC	0.0138
GTCCGCAC	0.0555
ATGTGCGC	0.0703
CGGCTTCA	0.091

Sequence	PBM E-score
CAGTGGAG	0.0978
CGCTCGGC	-0.134
CCCGACCA	0.00921
AGGCGTAG	-0.174
ACAAGCAG	-0.0293
CACTTGCG	-0.0493
CCTCTCAA	-0.0128
GGTTCGAA	0.0786
CAGTGAGG	-0.185
CCACCTTC	-0.185
CCCCGCAA	0.116
AGAGTTTC	-0.285
GAACCCTA	-0.0872
CAGGAGTA	-0.0466
CGGATTTC	0.00244
TCAGGGGA	-0.0109
AAATCTCG	0.0688
AGTCCCAT	-0.127
TCTGTCCA	0.00147
CTTCATCC	0.00701
AGAATCAT	0.0959
CTCGAGCA	0.117

Sequence	PBM E-score
ACAAGTGC	-0.0687
CGGCCTTA	0.0192
AGCGATGC	-0.176
GCGTGGCC	-0.253
ATTGGTAA	0.193
ACAGATGA	0.0554
AACACCCT	-0.13
ACGGGGAA	-0.00505
AAACCAGA	0.0316
GGACTGAA	-0.0795
CCAGTGTC	-0.0197
AGCGGTTC	-0.00708
ACACCTAA	0.0735
ACGGAATG	0.142
GCAAACTA	0.077
CAGAAACA	-0.00473
AATCCGAT	0.24
ATCTCTGA	-0.116
CCTAACCG	-0.128
GCTCTTCC	-0.26
AAACCGAC	0.142
CAAAACGG	0.00719
